Experiment: in vitro
Details: pig, PAMPA, pH 7.4
Text: The above-referenced commercial compounds, phosphate buffer at pH=7.4 (PBS), Ethanol and dodecane were obtained from the commercial houses Sigma, Acros organics, Merck, Aldrich and Fluka, respectively. […] To filter the samples, PVDF membrane filters were used (30 mm diameter, 0.45 μm pore size) from the company Symta. The equipment used to measure UV absorbance in 96-well plates was a Thermoscientific Multiskan spectrum.
Ten reference compounds were selected, whose blood-brain barrier passage is known, in order to validate the experiment. […] The solutions were filtered. Next, 180 μL of a PBS/EtOH (70/30) solution were added to each well of the acceptor plate. The donor plate was impregnated with 4 μL of a pig brain lipid solution dissolved in dodecane (20 mg mL^−1). After 5 minutes, 180 μL of solution of each compound were added on this plate. Of the compounds whose penetration in the central nervous system is being evaluated, between 1-2 mg were taken and dissolved in 1,500 μL of EtOH and 3,500 μL of PBS phosphate buffer (pH=7.4), filtered and added to the 96-well donor plate. […] The concentration and absorbance of both the commercial compounds and the synthesised derivatives that were evaluated in the acceptor and donor plates were determined using a UV absorbance reader. Each sample was analysed at 2 to 5 wavelengths, in at least three wells and in two independent experiments. […]

Papp at 2.5 h: 1 ± 0.6 ×10⁻⁶ cm/s
SMILES: CC(C)NCC(O)COc1ccc(CC(N)=O)cc1 (stereo not shown) [Atenolol, reference compound]

— patent publication US11912678B2, “LRRK2 inhibiting compounds and use thereof for treating neurodegenerative diseases” (CONSEJO SUPERIOR DE INVESTIGACIONES CIENTÍFICAS, priority 2018, dated 2024)
